For one substance, binding results are on record in publication PMC10493609 (Frontiers in Immunology, 2023).

Sequences of proteins named here, by UniProt entry; tags and fusion partners are left off. Residues count along the entry.
UniProt Q15116, residues 25-170: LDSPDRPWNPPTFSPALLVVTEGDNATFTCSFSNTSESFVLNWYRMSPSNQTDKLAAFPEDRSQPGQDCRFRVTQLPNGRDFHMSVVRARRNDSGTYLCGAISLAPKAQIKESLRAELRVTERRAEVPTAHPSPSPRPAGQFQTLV
UniProt Q9NZQ7: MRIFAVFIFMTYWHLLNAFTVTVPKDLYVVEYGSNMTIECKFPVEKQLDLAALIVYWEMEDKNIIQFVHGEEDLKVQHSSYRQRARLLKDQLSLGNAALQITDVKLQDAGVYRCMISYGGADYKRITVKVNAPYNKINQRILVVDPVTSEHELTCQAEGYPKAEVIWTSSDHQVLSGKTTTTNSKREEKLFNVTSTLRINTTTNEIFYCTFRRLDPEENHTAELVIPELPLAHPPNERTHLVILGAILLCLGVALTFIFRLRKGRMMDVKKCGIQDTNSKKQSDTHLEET

These are yes or no findings as the source states them, for the method shown. Some results given as binding are weak or reduced against the parent protein; the word gives no strength.

Assay [1] has as its target PD-1 human recombinant protein (human) (UniProt Q15116). The assay is described as follows: SPR; Gal-3 (1 µM) over immobilised PD-1 or immobilised PD-L1, with and without the Gal-3 inhibitor GB1211; both purified.
The target in assay [2] is PD-L1 human recombinant protein (human) (UniProt Q9NZQ7). The description is as above.

Consider “Human recombinant Galectin-3 (from UniProt P17931 1-250)”, for which the binding result in assay [1] and in assay [2] was “binds” in each case.
